Reference: PubChem BioAssay AID493014 (National Center for Advancing Translational Sciences (NCATS), 2011)
In all, about 340,000 compounds went through this assay and about 170 (0.05%) were called active. The shares of active, inactive and inconclusive entries below differ from those in the screen. Calls come from the whole dose curve; as a rule, active = well fitted inhibition curve with a large enough effect in the signal ratio, with a control signal flat (not every such curve was filed as active); inconclusive = small, poorly fitted or top-dose-only effect, or effect the other way, or a change in a side signal; inactive = flat fitted curve, though single readings scatter; the % refers to the signal ratio. Where the call is inconclusive, the potency comes from a doubtful curve fit.

Assay: qHTS Assay to Find Inhibitors of Chronic Active B-Cell Receptor Signaling;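 for activity change, negative = inhibition: plate controls were basal doxycycline-induced cells for no effect and cells given 10 µM MG132 for full effect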
Details: ABC-DLBCL IkBa-CBG/CBR reporter, luminescence ratio (green luciferase fused to IkBa over red control in TMD8 lymphoma cells), 4 h; activity change, negative = inhibition: at 46.1 µM (top of the series)
In short: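 TMD8 human ABC-DLBCL cells with doxycycline-inducible IκBα–green luciferase fusion and unfused red luciferase, in 0.5% FBS medium; compounds up to 46 uM, 4 h at 37C. Green/red luminescence ratio, filter-overlap corrected, fitted to concentration-response curves.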
Potency is the fitted concentration of half-maximal effect.

Row | Compound | activity change, negative = inhibition | Potency
1 | C[C@@H](CN1C2=NC[C@H](Cc3ccccc3)N2C[C@H]1Cc1ccc(O)cc1)NC(=O)CCC1CCCCC1 | inconclusive: -3.64% | –
2 | Cc1ccccc1Cn1c(CN2CCc3ccccc3C2)nc2c1c(=O)n(C)c(=O)n2C | inactive: -11.4% | –
3 | Nn1c(SCC(=O)Nc2ccc(F)c(F)c2)nnc1C1CCCCC1 | inconclusive: -3.81% | –
4 | O=C(O)Cc1sc(Nc2ccc(Cl)cc2)nc1-c1cccs1 | – | inconclusive: 11.2 µM [falling, partial curve]
5 | O=C(c1cccc(OC2CCN(Cc3ccc(F)cc3Cl)CC2)c1)N1CCCC1 | inactive: -1.3% | –
6 | CC(NC(=O)c1cc(S(=O)(=O)N2CCOCC2)ccc1F)c1ccc(-n2ccnc2)cc1 (stereo not drawn) | inactive: -1.53% | –
7 | COc1ccc(-c2c(C)c3ccc(O)cc3oc2=O)cc1 | – | inconclusive: 11.2 µM [falling, partial curve]
8 | COc1ccc(C2CC(c3ccc(F)cc3)=NN2c2ccccc2)cc1OC (stereo not drawn) | inactive: -1.44% | –
9 | CCOc1cc(/C=N/NC(=O)c2cccc([N+](=O)[O-])c2)ccc1OS(=O)(=O)c1ccccc1 | inactive: 17.8% | –
10 | COCCCn1c(C)nnc1SCC(=O)Nc1cccc(C)c1 | inactive: 5.56% | –
11 | CCOC(=O)c1ccc(NC(=O)CSc2nnc(CCc3ccc(C)o3)n2-c2ccccc2)cc1 | inactive: 9.85% | –
12 | COc1ccccc1CNCC(O)(c1ccc(Cl)cc1)c1ccc(Cl)cc1 | inconclusive: 10% | –
13 | Cn1cc(S(=O)(=O)N2CCOCC2)cc1C(=O)Nc1cccc(Cl)c1 | inconclusive: 14.1% | –
14 | O=C(c1ccccc1)c1ccc2nc(N3CCCCC3)c3nncn3c2c1 | inconclusive: -6.2% | –
15 | O=C(O)c1cccc(NC(=S)NC(NC(=O)c2cccc([N+](=O)[O-])c2)C(Cl)(Cl)Cl)c1 (stereo not drawn) | inactive: -1.1% | –
16 | COc1ccc(CSc2cccc3cccnc23)cc1[N+](=O)[O-] | inconclusive: 0.0153% | –
17 | O=C(Nc1ccccc1F)Nc1cccc2ccc(O)cc12 | inconclusive: -10.3% | –
18 | COc1ccccc1NC(=O)CSc1nc2c(sc3ccccc32)c(=O)n1CCN(C)C | inconclusive: -12.5% | –
19 | Cc1ccn2cc(-c3cccc(S(=O)(=O)N4CCCC4)c3)nc2c1 | inactive: 0.391% | –
20 | O=C1NC2(CCCCCC2)Cc2ccccc21 | inconclusive: 5% | –
21 | CCOC(=O)[C@H]1[C@H]2COc3cc(OC)ccc3[C@@H]2N2C(=O)CN(CCc3c[nH]c4ccccc34)C(=O)[C@@]12C | – | inconclusive: 23.1 µM [falling, single point]
22 | CCC(C(=O)NC1CCCCC1)n1c(SCc2ccccc2F)nc2ccncc21 (stereo not drawn) | inactive: -0.0252% | –
23 | COc1cccc(/C=C(/C#N)c2ccc(F)cc2)c1OCc1cccc(C(=O)O)c1 | inconclusive: 2.11% | –
24 | CN(C(=O)CSc1nncn1C)C1CCCN(Cc2ccccc2F)C1 (stereo not drawn) | inconclusive: -2.99% | –
25 | CCCNC(=O)c1csc(Nc2cccc3ccccc23)n1 | – | inconclusive: 15.8 µM [falling, single point]
26 | Cc1ccc2cc(CN(CC3CCCO3)C(=O)Nc3ccccc3F)c3nnnn3c2c1 (stereo not drawn) | – | inconclusive: 20 µM [falling, partial curve, poor fit]
27 | CNC(=O)COc1ccccc1C(=O)Nc1ccc2c(c1)oc1ccccc12 | – | inconclusive: 6.51 µM [falling, partial curve, poor fit]

Some of the entries above, reformatted.

| Row | Compound | activity change, negative = inhibition | Potency |
| --- | --- | --- | --- |
| 1 | C[C@@H](CN1C2=NC[C@H](Cc3ccccc3)N2C[C@H]1Cc1ccc(O)cc1)NC(=O)CCC1CCCCC1 | inconclusive: -3.64% | – |
| 2 | Cc1ccccc1Cn1c(CN2CCc3ccccc3C2)nc2c1c(=O)n(C)c(=O)n2C | inactive: -11.4% | – |
| 4 | O=C(O)Cc1sc(Nc2ccc(Cl)cc2)nc1-c1cccs1 | – | inconclusive: 11.2 µM [falling, partial curve] |
| 5 | O=C(c1cccc(OC2CCN(Cc3ccc(F)cc3Cl)CC2)c1)N1CCCC1 | inactive: -1.3% | – |
| 6 | CC(NC(=O)c1cc(S(=O)(=O)N2CCOCC2)ccc1F)c1ccc(-n2ccnc2)cc1 (stereo not drawn) | inactive: -1.53% | – |
| 9 | CCOc1cc(/C=N/NC(=O)c2cccc([N+](=O)[O-])c2)ccc1OS(=O)(=O)c1ccccc1 | inactive: 17.8% | – |
| 11 | CCOC(=O)c1ccc(NC(=O)CSc2nnc(CCc3ccc(C)o3)n2-c2ccccc2)cc1 | inactive: 9.85% | – |
| 12 | COc1ccccc1CNCC(O)(c1ccc(Cl)cc1)c1ccc(Cl)cc1 | inconclusive: 10% | – |
| 14 | O=C(c1ccccc1)c1ccc2nc(N3CCCCC3)c3nncn3c2c1 | inconclusive: -6.2% | – |
| 15 | O=C(O)c1cccc(NC(=S)NC(NC(=O)c2cccc([N+](=O)[O-])c2)C(Cl)(Cl)Cl)c1 (stereo not drawn) | inactive: -1.1% | – |
| 16 | COc1ccc(CSc2cccc3cccnc23)cc1[N+](=O)[O-] | inconclusive: 0.0153% | – |
| 17 | O=C(Nc1ccccc1F)Nc1cccc2ccc(O)cc12 | inconclusive: -10.3% | – |
| 20 | O=C1NC2(CCCCCC2)Cc2ccccc21 | inconclusive: 5% | – |
| 21 | CCOC(=O)[C@H]1[C@H]2COc3cc(OC)ccc3[C@@H]2N2C(=O)CN(CCc3c[nH]c4ccccc34)C(=O)[C@@]12C | – | inconclusive: 23.1 µM [falling, single point] |
| 22 | CCC(C(=O)NC1CCCCC1)n1c(SCc2ccccc2F)nc2ccncc21 (stereo not drawn) | inactive: -0.0252% | – |

Later entries

Row | Compound | activity change, negative = inhibition | Potency
28 | Cn1cc(/C=C/C(=O)N2CCCC(C(=O)c3ccc(C(C)(C)C)cc3)C2)cn1 (stereo not drawn) | – | inconclusive: 0.282 µM [falling, full curve, poor fit]
29 | C=C1C(=O)O[C@@H]2C[C@@H](C)[C@@H]3C=CC(=O)[C@@]3(C)[C@@H](OC(C)=O)[C@H]12 | inconclusive: 24.4% | –
30 | Cc1[nH]c2ccccc2c(=O)c1CN1CCCCC1 | inactive: -0.224% | –
31 | COc1ccc(CC(=O)OCc2cc(=O)n3cc(Br)ccc3n2)cc1OC | inconclusive: 4.6% | –
32 | Cc1ccc2nc(-c3ccccc3Cl)cc(C(=O)Nc3cc(C)on3)c2c1 | inconclusive: 0.141% | –
33 | O=C(CN1C(=O)c2ccccc2S1(=O)=O)NCCc1ccccc1 | inconclusive: -8.75% | –
34 | Cc1cc2oc(C(=O)Nc3ccc(S(=O)(=O)Nc4nccs4)cc3)cc(=O)c2cc1Cl | – | inconclusive: 16.4 µM [rising, partial curve, poor fit]
35 | Cc1ccc2c(c1)-c1c(ssc1=S)C(C)(C)N2C(=O)CSC1=NCCS1 | inactive: 1.18% | –
36 | Nc1ncnc(N2CCOCC2)c1N | inactive: 5.02% | –
37 | CC(CC(=O)Nc1cccc(S(=O)(=O)N2CCCCC2)c1)c1ccccc1 (stereo not drawn) | inactive: -0.427% | –
38 | O=C(C(Sc1ccccc1)c1ccccc1)N1CCOCC1 (stereo not drawn) | inconclusive: 5.54% | –
39 | CC1CCC(C(C)C)C(OC(=O)COC(=O)c2ccc(N)cc2)C1 (stereo not drawn) | inconclusive: 20.2% | –
40 | Cc1cc(=O)[nH]c2nnc(SCC(N)=O)n12 | inactive: -26.4% | –
41 | CCn1c(SCC#N)nc2ccccc2c1=O | inconclusive: -22.6% | –
42 | CCC(C)c1ccc(OCC(=O)Nc2ccc3c(c2)C(=O)NC3=O)cc1 (stereo not drawn) | inactive: 6.74% | –
43 | CCOC(=O)C1=C(C)N=C2SC(C(=O)OC)=CC(=O)N2C1c1ccc(F)cc1 (stereo not drawn) | inconclusive: 9.88% | –
44 | CS(=O)(=O)c1ccc(C(=O)OCC(=O)N2CCCc3ccccc32)cc1 | inactive: -2.75% | –
45 | COc1ccc(C(=O)N2c3ccc(F)cc3CCC2C)cc1OC (stereo not drawn) | inactive: -3.94% | –
46 | O=C(O)c1ccccc1/C=N/NC(=S)NC1CCCCC1 | inconclusive: 0.113% | –
47 | COC(=O)c1ccc(C)c(NC(=O)CN2C(=O)c3ccccc3S2(=O)=O)c1 | inconclusive: 3.26% | –
48 | CC(CSc1nc2ccccc2s1)Cn1c(N2CCCC2)nc2c1c(=O)[nH]c(=O)n2C (stereo not drawn) | inconclusive: -1.84% | –
49 | COC(=O)c1ccccc1N(Cc1ccccc1)S(C)(=O)=O | inactive: 1.4% | –
50 | CCN(c1ccccc1)S(=O)(=O)c1ccc(C(=O)NCC(=O)Nc2ccc(F)c(F)c2F)cc1 | inconclusive: 1.19% | –
51 | O=C1OCCN1C(=O)[C@H]1[C@H](c2ccc(Cl)cc2)C(c2ccc(F)cc2)=NN1c1ccccc1 | inconclusive: 8.76% | –
52 | O=C(Nc1cccc([N+](=O)[O-])c1)Nc1cccc([N+](=O)[O-])c1 | inconclusive: 1.62% | –
53 | CC(C)n1cnc2c(NCc3ccccc3)cc(OCC3CCN(C)CC3)cc21 | – | inconclusive: 29.1 µM [falling, single point]
